Test results taken from the supplement of paper PMC10849652.
The list shows a part of the results.

Amino acid sequences for entries named in this document (tags omitted). A change or cut given only in a name is not applied to a line headed by its entry.
UniProt Q8IZL8: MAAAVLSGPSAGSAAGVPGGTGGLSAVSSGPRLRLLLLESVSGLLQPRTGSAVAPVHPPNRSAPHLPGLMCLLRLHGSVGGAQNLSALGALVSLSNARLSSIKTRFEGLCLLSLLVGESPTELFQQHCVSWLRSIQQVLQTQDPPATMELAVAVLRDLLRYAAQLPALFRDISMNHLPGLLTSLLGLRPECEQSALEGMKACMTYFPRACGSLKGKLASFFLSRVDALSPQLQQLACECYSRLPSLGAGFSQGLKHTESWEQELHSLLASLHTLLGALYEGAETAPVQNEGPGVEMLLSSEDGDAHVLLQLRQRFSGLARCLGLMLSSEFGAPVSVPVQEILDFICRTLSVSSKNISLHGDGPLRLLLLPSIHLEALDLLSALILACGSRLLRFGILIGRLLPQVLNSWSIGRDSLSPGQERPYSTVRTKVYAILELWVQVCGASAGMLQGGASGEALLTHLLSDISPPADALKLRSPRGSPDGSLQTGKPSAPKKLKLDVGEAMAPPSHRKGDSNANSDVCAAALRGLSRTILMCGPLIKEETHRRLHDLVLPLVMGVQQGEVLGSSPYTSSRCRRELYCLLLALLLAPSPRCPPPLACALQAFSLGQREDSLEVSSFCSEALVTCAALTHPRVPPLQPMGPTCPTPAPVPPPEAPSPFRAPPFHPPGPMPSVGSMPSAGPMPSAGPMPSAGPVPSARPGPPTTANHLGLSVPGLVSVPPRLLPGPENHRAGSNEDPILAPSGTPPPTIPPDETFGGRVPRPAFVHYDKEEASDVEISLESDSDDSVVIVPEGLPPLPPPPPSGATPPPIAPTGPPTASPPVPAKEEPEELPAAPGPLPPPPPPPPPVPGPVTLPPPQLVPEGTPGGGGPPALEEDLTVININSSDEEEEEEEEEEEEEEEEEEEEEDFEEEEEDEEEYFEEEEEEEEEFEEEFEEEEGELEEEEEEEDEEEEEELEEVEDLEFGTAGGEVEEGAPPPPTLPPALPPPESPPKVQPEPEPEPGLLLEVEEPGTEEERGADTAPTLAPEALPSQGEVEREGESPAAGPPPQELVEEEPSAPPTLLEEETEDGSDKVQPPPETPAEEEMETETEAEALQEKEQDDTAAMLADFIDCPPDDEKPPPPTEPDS
UniProt Q9UHG3: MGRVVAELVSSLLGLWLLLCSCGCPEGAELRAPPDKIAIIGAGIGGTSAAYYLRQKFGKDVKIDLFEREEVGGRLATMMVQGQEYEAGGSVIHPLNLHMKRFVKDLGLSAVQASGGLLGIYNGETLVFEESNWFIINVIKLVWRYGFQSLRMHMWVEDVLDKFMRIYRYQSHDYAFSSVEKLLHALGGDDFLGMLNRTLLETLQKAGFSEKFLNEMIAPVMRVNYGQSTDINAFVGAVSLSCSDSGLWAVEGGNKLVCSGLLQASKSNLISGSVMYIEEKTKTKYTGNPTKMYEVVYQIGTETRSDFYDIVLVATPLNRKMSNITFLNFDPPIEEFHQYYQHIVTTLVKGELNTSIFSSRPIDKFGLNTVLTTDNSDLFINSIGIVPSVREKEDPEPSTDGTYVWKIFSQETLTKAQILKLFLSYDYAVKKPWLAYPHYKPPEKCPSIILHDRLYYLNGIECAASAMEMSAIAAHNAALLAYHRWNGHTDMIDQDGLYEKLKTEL
UniProt Q7L3T8: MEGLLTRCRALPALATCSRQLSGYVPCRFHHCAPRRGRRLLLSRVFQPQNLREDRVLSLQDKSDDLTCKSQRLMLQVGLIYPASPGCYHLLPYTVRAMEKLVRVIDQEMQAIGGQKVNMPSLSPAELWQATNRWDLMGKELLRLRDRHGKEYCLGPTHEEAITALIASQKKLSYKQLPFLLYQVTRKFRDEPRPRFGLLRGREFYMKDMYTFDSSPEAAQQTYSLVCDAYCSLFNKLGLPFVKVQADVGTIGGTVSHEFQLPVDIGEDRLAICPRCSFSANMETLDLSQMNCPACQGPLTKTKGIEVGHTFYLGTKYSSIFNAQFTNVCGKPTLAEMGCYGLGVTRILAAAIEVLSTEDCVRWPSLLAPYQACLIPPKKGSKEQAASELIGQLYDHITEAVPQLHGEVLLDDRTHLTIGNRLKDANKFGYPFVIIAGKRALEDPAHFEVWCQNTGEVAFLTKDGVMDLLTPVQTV
UniProt O60658: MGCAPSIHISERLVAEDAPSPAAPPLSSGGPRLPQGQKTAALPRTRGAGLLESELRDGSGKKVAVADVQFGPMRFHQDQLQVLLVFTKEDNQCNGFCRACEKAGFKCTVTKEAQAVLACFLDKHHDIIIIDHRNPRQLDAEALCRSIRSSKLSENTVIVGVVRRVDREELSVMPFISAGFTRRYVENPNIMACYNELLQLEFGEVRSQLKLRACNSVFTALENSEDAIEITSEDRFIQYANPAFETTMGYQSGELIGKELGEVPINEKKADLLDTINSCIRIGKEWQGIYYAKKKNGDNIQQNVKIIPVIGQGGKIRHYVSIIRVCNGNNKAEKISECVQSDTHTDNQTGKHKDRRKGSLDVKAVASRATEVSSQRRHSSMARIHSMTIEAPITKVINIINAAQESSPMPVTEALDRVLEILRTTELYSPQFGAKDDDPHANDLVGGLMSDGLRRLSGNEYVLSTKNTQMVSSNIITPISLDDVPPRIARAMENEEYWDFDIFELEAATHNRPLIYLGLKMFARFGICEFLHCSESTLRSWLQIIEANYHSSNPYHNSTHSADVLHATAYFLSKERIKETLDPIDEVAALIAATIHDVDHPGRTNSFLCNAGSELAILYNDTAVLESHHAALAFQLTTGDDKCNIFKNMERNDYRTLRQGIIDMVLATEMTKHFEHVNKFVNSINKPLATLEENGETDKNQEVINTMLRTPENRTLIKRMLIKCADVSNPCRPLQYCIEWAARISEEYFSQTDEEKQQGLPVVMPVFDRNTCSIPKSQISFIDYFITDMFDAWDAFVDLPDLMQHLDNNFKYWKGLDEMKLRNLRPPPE
UniProt Q16877: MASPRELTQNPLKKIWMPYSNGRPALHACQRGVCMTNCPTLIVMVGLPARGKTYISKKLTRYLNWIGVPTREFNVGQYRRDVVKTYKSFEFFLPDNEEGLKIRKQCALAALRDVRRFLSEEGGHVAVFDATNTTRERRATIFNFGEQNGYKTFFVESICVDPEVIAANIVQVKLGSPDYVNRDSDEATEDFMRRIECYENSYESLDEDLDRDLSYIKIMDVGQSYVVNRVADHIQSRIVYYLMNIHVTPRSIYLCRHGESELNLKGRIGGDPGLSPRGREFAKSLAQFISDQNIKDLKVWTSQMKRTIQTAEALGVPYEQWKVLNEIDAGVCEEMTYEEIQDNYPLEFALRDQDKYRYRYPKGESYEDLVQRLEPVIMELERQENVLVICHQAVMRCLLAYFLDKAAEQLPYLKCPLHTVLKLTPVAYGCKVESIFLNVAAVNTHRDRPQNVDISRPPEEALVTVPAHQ
UniProt P11498: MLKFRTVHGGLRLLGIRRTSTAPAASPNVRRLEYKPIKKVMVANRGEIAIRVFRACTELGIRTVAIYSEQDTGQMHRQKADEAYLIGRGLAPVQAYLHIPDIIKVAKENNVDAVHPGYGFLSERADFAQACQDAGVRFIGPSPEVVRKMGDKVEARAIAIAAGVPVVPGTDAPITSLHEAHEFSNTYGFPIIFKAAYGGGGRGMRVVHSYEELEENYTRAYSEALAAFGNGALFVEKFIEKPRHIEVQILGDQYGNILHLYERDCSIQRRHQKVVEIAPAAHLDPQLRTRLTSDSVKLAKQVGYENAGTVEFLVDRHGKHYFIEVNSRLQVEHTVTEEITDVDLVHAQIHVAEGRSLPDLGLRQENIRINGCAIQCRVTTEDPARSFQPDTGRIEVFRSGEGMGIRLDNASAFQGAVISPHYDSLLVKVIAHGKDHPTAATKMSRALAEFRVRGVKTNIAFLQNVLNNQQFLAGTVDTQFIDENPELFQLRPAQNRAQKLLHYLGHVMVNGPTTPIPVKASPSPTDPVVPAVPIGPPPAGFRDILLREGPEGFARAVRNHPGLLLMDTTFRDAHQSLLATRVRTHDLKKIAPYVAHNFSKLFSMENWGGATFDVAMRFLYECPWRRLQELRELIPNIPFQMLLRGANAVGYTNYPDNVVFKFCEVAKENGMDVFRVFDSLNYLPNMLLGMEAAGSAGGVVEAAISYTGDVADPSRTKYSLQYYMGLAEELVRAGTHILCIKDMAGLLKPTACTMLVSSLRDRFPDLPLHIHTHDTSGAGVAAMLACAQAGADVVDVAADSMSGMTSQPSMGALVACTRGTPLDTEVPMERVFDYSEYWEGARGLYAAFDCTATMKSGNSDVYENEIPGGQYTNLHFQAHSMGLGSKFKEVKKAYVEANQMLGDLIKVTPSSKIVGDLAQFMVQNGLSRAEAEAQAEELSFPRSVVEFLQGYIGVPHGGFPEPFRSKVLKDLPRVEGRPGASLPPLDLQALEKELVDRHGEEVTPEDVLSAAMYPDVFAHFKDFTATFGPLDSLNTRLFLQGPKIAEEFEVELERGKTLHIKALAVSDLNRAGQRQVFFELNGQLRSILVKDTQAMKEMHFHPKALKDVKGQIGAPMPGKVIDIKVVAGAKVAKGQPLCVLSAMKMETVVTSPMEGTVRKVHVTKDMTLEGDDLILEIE
UniProt P05166: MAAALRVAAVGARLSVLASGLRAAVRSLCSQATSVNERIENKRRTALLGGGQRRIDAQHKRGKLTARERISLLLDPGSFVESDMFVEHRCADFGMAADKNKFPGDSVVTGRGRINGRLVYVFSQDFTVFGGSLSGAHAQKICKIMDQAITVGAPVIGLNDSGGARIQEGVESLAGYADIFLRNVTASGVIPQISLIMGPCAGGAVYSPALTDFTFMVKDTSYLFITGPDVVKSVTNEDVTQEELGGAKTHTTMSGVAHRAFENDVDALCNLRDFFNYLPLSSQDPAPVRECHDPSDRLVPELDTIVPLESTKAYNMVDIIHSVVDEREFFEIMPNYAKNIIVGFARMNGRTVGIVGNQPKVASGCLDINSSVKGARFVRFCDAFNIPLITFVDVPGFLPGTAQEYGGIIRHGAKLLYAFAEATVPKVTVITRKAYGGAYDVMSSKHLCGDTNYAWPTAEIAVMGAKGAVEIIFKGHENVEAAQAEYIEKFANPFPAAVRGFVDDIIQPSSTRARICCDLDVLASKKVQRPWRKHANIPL
UniProt P0DJ07: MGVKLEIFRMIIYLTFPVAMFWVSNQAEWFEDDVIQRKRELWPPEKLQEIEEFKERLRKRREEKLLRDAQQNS
UniProt Q9H4Z3: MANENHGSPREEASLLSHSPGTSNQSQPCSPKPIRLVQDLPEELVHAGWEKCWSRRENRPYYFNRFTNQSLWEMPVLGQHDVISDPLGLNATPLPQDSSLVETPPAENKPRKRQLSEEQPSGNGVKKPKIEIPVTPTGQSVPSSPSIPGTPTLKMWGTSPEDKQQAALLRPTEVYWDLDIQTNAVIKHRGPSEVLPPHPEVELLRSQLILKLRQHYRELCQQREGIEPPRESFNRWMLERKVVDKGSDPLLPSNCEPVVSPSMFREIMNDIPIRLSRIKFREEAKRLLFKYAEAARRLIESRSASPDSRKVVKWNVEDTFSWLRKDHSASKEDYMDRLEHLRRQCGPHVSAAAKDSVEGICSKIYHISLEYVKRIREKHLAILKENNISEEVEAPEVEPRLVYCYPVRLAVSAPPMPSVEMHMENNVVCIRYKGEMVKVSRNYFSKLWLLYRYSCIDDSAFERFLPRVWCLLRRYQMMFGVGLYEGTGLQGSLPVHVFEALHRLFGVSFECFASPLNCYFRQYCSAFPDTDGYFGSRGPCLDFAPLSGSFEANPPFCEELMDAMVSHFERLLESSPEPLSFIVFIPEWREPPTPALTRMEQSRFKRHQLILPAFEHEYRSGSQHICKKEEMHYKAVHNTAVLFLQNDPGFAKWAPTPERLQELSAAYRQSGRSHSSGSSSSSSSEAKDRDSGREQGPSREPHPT
UniProt Q9Y5K3: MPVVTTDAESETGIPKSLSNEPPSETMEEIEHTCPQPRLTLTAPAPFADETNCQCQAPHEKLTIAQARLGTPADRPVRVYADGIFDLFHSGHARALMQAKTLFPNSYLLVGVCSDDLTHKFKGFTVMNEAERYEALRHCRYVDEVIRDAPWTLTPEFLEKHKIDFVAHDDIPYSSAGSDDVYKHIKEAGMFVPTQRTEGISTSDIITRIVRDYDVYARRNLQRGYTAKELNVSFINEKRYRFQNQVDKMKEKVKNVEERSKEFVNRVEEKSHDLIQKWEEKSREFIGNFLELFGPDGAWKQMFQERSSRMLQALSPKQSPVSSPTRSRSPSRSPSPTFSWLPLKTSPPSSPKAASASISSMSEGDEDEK
UniProt Q9UHV9, whole entry, looked up: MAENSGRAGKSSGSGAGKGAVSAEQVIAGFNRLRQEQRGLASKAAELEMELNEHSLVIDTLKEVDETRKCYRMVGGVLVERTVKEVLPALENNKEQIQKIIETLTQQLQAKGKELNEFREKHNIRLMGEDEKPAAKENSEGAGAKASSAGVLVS
UniProt Q15121, whole entry, looked up: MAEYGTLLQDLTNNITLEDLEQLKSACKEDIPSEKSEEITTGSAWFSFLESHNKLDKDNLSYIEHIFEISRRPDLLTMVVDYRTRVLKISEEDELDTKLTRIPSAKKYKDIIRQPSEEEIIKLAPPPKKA

Each target was assayed with CC1=C2C(=CC=C1)N=C(N(C2=O)C3=CC=CC=C3C)CN4C=NC5=C(N=CN=C54)N (assay: log2 fold change, soluble protein after heating vs DMSO (PISA); higher = thermal stabilisation; K562 lysate, 10 uM; active = over 0.2 and 3.5 SD of the protein, either way, in both replicates (recomputed)).
How it was run: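 Dounce homogenisation of K562 pellets in PBS pH 7.4 with 1 mM MgCl2 produced a crude extract, used at 1 mg/mL protein. Exposure to 10 μM compound lasted 30 min, and aliquots were then heated for 3 min across 48°C-58°C, pooled and brought to 0.5% NP-40 at 4°C. The supernatant after 21,000xg for 90 min was quantified by TMTpro 16plex LC-MS/MS with channel sums equalised. Duplicate values are given as log-two fold change in thermal stability relative to solvent controls.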

Row | Target | log2 fold change
1 | PELP1 (UniProt Q8IZL8) | inactive: -0.059
2 | PCYOX1 (UniProt Q9UHG3) | inactive: -0.025
3 | PEBP1 (UniProt P30086) | inactive: -0.021
4 | PEX2 (UniProt P28328) | inactive: -0.048
5 | PARS2 (UniProt Q7L3T8) | inactive: 0.001
6 | PBLD (UniProt P30039) | inactive: 0.09
7 | PDE8A (UniProt O60658) | inactive: 0.381
8 | PFKFB4 (UniProt Q16877) | inactive: 0.059
9 | PARPBP (UniProt Q9NWS1) | inactive: 0.179
10 | PDXDC1 (UniProt Q6P996) | inactive: 0.01
11 | PAXIP1 (UniProt Q6ZW49) | inactive: 0.033
12 | PC (UniProt P11498) | inactive: 0.017
13 | PCCB (UniProt P05166) | inactive: -0.004
14 | PET100 (UniProt P0DJ07) | inactive: 0.072
15 | PDCD2L (UniProt Q9BRP1) | inactive: -0.027
16 | PCIF1 (UniProt Q9H4Z3) | inactive: 0.026
17 | PFKFB2 (UniProt O60825) | inactive: 0.03
18 | PDXK (UniProt O00764) | inactive: -0.029
19 | PCBP2 (UniProt F8W0G4) | inactive: 0.043

Single values from above.
PEBP1 (UniProt P30086) | log2 fold change: inactive: -0.021
PDCD2L (UniProt Q9BRP1) | log2 fold change: inactive: -0.027

Going on with the list:

Row | Target | log2 fold change
20 | PCYT1B (UniProt Q9Y5K3) | inactive: -0.01
21 | PAXX (UniProt Q9BUH6) | inactive: 0.018
22 | PCLO (UniProt Q9Y6V0) | inactive: 0.107
23 | PFDN2 (UniProt Q9UHV9) | inactive: -0.016
24 | PDS5A (UniProt Q29RF7) | inactive: 0.017
25 | PCSK9 (UniProt Q8NBP7) | inactive: -0.033
26 | PCGF5 (UniProt Q86SE9) | inactive: 0.028
27 | PDE4DIP isoform 4 (UniProt Q5VU43) | inactive: 0.018
28 | PEX7 (UniProt O00628) | inactive: -0.088
29 | PEX19 (UniProt P40855) | inactive: -0.012
30 | PDE12 (UniProt Q6L8Q7) | inactive: 0
31 | PDPR (UniProt Q8NCN5) | inactive: 0.026
32 | PDIA3 (UniProt P30101) | inactive: -0.023
33 | PES1 (UniProt O00541) | inactive: 0.019
34 | PCF11 (UniProt O94913) | inactive: 0.022
35 | PEA15 isoform 2 (UniProt Q15121) | inactive: -0.024
36 | PDZD11 isoform 2 (UniProt Q5EBL8) | inactive: 0.05
37 | PCM1 (UniProt Q15154) | inactive: 0.022
38 | PARP9 (UniProt Q8IXQ6) | inactive: 0.084
